Measurements reported in PubChem BioAssay AID1259254 (NCATS, 2017)

Assay: 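Finding genes that stop cells copying their DNA twice in one cycle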 (primary screen)
System: human HCT116 colorectal cancer cells
Reagents: single siRNA against human genes
Timing: 3 days
Measurement: 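Nuclei stained with Hoechst and imaged; cell-cycle phase assigned by DNA content; G2 share scaled per plate, non-targeting siRNA 0%, GMNN siRNA 100%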
Direction: G2 robust z-score: higher = more G2 cells, more excess DNA replication
Hit rule: 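An siRNA counts as active if its G2 robust z-score lies at least 5 MADs above the screen median; here such calls match roughly 38% of GMNN control or more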
The deposit covers about 59,000 reagents; this is a part drawn at random. About 1,550 of all reagents (2.6%) were called active. 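G2 share is only a proxy for re-replication; each gene was hit by three separate siRNAs, and active genes were retested.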 The numbers tell different reagents against one gene apart. Not all columns of the deposit are shown. The record does not give: the amount of reagent.

G2 robust z-score, by target gene and reagent
SELE (selectin E): #1 1.79 inactive; #2 1.04 inactive; #3 -1.06 inactive
RIPK2 (receptor interacting serine/threonine kinase 2): #1 -0.175 inactive; #2 2.98 inactive; #3 -0.835 inactive
LPL (lipoprotein lipase): #1 -1.03 inactive; #2 2.57 inactive; #3 0.374 inactive
GPR87 (G protein-coupled receptor 87): #1 -1.31 inactive; #2 -0.75 inactive; #3 -0.277 inactive
TMEM45B (transmembrane protein 45B): #1 5.71 active; #2 1.72 inactive; #3 -0.482 inactive
COPS4 (COP9 signalosome subunit 4): #1 1.98 inactive; #2 1.86 inactive; #3 0.17 inactive
MAGEB4 (MAGE family member B4): #1 0.526 inactive; #2 -0.362 inactive; #3 0.0412 inactive
PTPN5 (protein tyrosine phosphatase non-receptor type 5): #1 -1.61 inactive; #2 2.34 inactive; #3 -0.41 inactive
WDR47 (WD repeat domain 47): #1 -1.58 inactive; #2 0.305 inactive; #3 -0.12 inactive
LEMD2 (LEM domain nuclear envelope protein 2): #1 -0.543 inactive; #2 0.472 inactive; #3 -0.235 inactive
RPS15 (ribosomal protein S15): #1 8.94 active; #2 4.34 inactive; #3 0.988 inactive
PPP4R4 (protein phosphatase 4 regulatory subunit 4): #1 -0.0615 inactive; #2 -0.904 inactive; #3 0.365 inactive
TSEN15 (tRNA splicing endonuclease subunit 15): #1 0.635 inactive; #2 -0.444 inactive; #3 0.0442 inactive
EID2B (EP300 interacting inhibitor of differentiation 2B): #1 -0.862 inactive; #2 -0.608 inactive; #3 -0.899 inactive
KCNMB4: #1 4.38 inactive; #2 3.21 inactive; #3 0.676 inactive

Records listed above called active:
G2 robust z-score, by target gene and reagent
TMEM45B (transmembrane protein 45B): #1 5.71 active
RPS15 (ribosomal protein S15): #1 8.94 active

Further records:
G2 robust z-score, by target gene and reagent
SNAI1 (snail family transcriptional repressor 1): #1 0.659 inactive; #2 -0.704 inactive; #3 1.02 inactive
FHAD1 (forkhead associated phosphopeptide binding domain 1): #1 0.957 inactive; #2 -1.06 inactive; #3 -0.851 inactive
HSCB (HscB mitochondrial iron-sulfur cluster cochaperone): #1 2.86 inactive; #2 0.468 inactive; #3 -0.665 inactive
OR4K5 (olfactory receptor family 4 subfamily K member 5): #1 0.815 inactive; #2 -0.553 inactive; #3 -0.736 inactive
ME2 (malic enzyme 2): #1 0.113 inactive; #2 -0.215 inactive; #3 -0.315 inactive
AGBL2 (AGBL carboxypeptidase 2): #1 3.76 inactive; #2 3.2 inactive; #3 1.04 inactive
SLC35E2A: #1 0.595 inactive; #2 0.276 inactive; #3 -0.538 inactive
TRRAP (transformation/transcription domain associated protein): #1 -0.27 inactive; #2 1.53 inactive; #3 0.0871 inactive
SLC67A1: #1 -0.096 inactive; #2 1.52 inactive; #3 -0.734 inactive
RIPK4 (receptor interacting serine/threonine kinase 4): #1 1.05 inactive; #2 5.42 active; #3 -0.0036 inactive
FAM47C (family with sequence similarity 47 member C): #1 -0.49 inactive; #2 1.51 inactive; #3 -0.74 inactive
GHRHR (growth hormone releasing hormone receptor): #1 -1.59 inactive; #2 -0.846 inactive; #3 1.39 inactive
PDE4C (phosphodiesterase 4C): #1 0.252 inactive; #2 -0.429 inactive; #3 -0.0949 inactive
CMBL (carboxymethylenebutenolidase homolog): #1 2.79 inactive; #2 -0.538 inactive; #3 -0.0738 inactive
